The values below come from PubChem BioAssay AID445 (National Center for Advancing Translational Sciences (NCATS), 2006).

The other results are listed elsewhere or left out. The main result of the screen is listed elsewhere. These columns were measured beside it and carry no call. Most of these compounds were active or inconclusive in the main read-out, so they are no random draw. The note in brackets gives the kind of curve behind each potency; many fits are weak.

The test is described as follows: IkB Signaling. As to conditions: ABC-DLBCL IkBa-CBG/CBR dual luciferase ratio (green luciferase fused to IkBa over red control in OCI-Ly3 lymphoma cells), 4 h; measured here: control luc red channel unless noted. The method in brief: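 Luminescence ratio of IκBα-fused green versus native red beetle luciferase in OCI-Ly3 cells, 4 h post-doxycycline with compound; red signal alone, scaled from basal (0%) to zero light (-100%), flagged nonspecific or cytotoxic effects.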
Turning to `Cc1nc(-c2ccc(Cl)cc2)sc1CCNC(=O)C(=O)Nc1ccc(F)cc1F`, the AC50 was 10 µM [rising, partial curve, poor fit].
Consider `CCCCN1C(=O)c2[nH]nc(-c3ccccc3O)c2C1c1cccc(OCc2ccccc2)c1` (centres undefined), for which the AC50 is 25.1 µM [falling, partial curve].
Take `Cc1ccccc1NC(=O)c1ccc(F)c(S(=O)(=O)N(C)Cc2ccccc2)c1`: the AC50 is 39.8 µM [falling, single point].
In the case of `COc1ccccc1C1C=C(c2ccc(F)cc2)Nc2nc(-c3ccc(Cl)cc3)nn21` (centres undefined), the AC50 is 10 µM [falling, partial curve].
For `Cc1ccc2[nH]c(=O)c3cc(C(=O)N4CCN(c5ccccc5)CC4)sc3c2c1`, the AC50 was 1 µM [falling, full curve].
For the compound `COc1cccc(NC(=O)NCc2ccc3c(c2)CCN3C(=O)c2ccccc2)c1`, the AC50 is 15.8 µM [falling, partial curve].
For `Cc1cccc(C(=O)Nc2sc3c(c2C(=O)NCc2ccco2)CCCC3)c1`, the AC50 was 6.31 µM [falling, partial curve].
The result for `COc1ccccc1-c1nc2c(c(SCc3cccc(Cl)c3)n1)Cc1c(CO)cnc(C)c1O2` reads 0.158 µM [rising, full curve, poor fit]; that for `CCOC(=O)c1ccccc1NC(=O)N1CCc2c(sc(C)c2CC)C1c1ccccc1` (centres undefined), 0.00631 µM [rising, full curve]; that for `COc1cc(OC)cc(C(=O)Oc2c(Sc3ccccc3)c(C)nn2C(C)(C)C)c1`, 0.251 µM [rising, full curve].
To `CCOc1ccc(-n2c(Cc3ccccc3)nnc2SCc2nc(-c3ccccc3OC)no2)cc1` belongs 39.8 µM [falling, single point].
The result for `O=C(Nc1cccs1)Nc1cc(C(F)(F)F)ccc1Cl` reads 20 µM [falling, partial curve]; that for `CCOC(=O)C1CCN(c2ncnc3c2c(-c2ccccc2)cn3-c2cccc(C)c2)CC1`, 25.1 µM [falling, partial curve].
With `CCOC(=O)c1c(C)[nH]c2ccc3c(c12)CN1CCc2cc(OC)ccc2[C@@H]1O3`, the AC50 was 39.8 µM [falling, single point].
`Cc1cccc(NC(=O)CCCn2c(C)c3cnn(-c4ccccc4)c(=O)c3c2C)c1C`: the AC50 is 0.501 µM [falling, full curve].
Take `CCc1ccc(CNC(=O)c2sc3ncccc3c2-n2c(C)ccc2C)cc1`: the AC50 was 20 µM [falling, single point].
The result for `CCOc1ccccc1CNS(=O)(=O)c1ccc2c(c1)CCCN2C(C)=O` reads 25.1 µM [rising, single point]; that for `Cc1ccc(OCC(=O)Nc2ccc(S(=O)(=O)Nc3cc(C)nc(C)n3)cc2)c(Br)c1`, 25.1 µM [falling, single point].
The result for `O=C(NCc1cn2ccsc2n1)Nc1cccc(Cl)c1` reads 20 µM [falling, single point]; that for `COc1ccc(C2=CC(c3ccc(F)cc3)n3ncc(C(=O)Nc4ccc(C)cc4)c3N2)cc1` (centres undefined), 3.16 µM [falling, single point]; that for `COc1cccc(NC(=O)CSc2nc3c(oc4ccccc43)c(=O)n2Cc2ccco2)c1`, 25.1 µM [falling, partial curve, poor fit].
Regarding `CCOC(=O)C1CCCN(C(=O)C2CCN(c3nnc(C)c4c(C)n(-c5ccccc5)nc34)CC2)C1` (centres undefined), the AC50 was 15.8 µM [falling, partial curve].
Regarding `CC1CN(c2nn3c(=O)c4ccccc4nc3c3ccccc23)CC(C)O1` (centres undefined), the AC50 was 20 µM [falling, partial curve].
The result for `Clc1ccc(-c2noc3ncnc(NCCCN4CCN(c5ccccc5)CC4)c23)cc1` reads 39.8 µM [falling, single point].
In the case of `Cc1cc(NC(=O)CSc2nc3c([nH]c4ccccc43)c(=O)n2-c2cccc(Cl)c2)no1`, the AC50 is 31.6 µM [rising, single point].
With `CCOc1ccccc1NC(=O)C(Cc1ccccc1)NS(=O)(=O)c1ccc(Br)s1` (centres undefined), the AC50 was 15.8 µM [falling, partial curve].
The result for `Cc1ccc(C)c(N2CCN(C(=O)C3CCN(S(=O)(=O)c4cn(C)cn4)CC3)CC2)c1` reads 10 µM [falling, full curve].
Regarding `COc1ccc(CNS(=O)(=O)c2cc(C(=O)Nc3cc(Cl)cc(Cl)c3)ccc2F)cc1`, the AC50 was 25.1 µM [falling, partial curve].
To `CCc1ccc(CNC(=O)C(CC)n2ccc3cc(S(=O)(=O)N4CCCCC4)ccc32)cc1` (centres undefined) belongs 3.98 µM [falling, full curve].
Turning to `CCOC(=O)N1CCc2c(sc(NCc3ccc(OCC)cc3)c2C(=O)Nc2ccc(OC)cc2OC)C1`, the AC50 is 0.2 µM [falling, full curve, poor fit].
To `O=C(NC1CCCC1)c1ccc(CSc2nc3ccncc3n2Cc2ccccc2F)cc1` belongs 39.8 µM [falling, single point]; to `O=C(Nc1ccccc1F)C(Cc1ccccc1)n1cccc1` (centres undefined), 12.6 µM [falling, single point]; to `CCc1ccc(-c2nc(CSCC(=O)N3CCN(c4ccccn4)CC3)c(C)o2)cc1`, 5.01 µM [falling, full curve, poor fit].
To `O=C(Nc1ccc2nc(SCC(=O)N3CCOCC3)sc2c1)c1ccc(F)cc1` belongs 12.6 µM [falling, partial curve]; to `Cc1ccc(SCc2[nH]nc3c2C(c2ccco2)C(C#N)=C(N)O3)cc1` (centres undefined), 10 µM [falling, partial curve].
To `COc1cc(OC)cc(-c2nc3nc(C)c(CCC(=O)Nc4ccc(Cl)cc4)c(C)n3n2)c1` belongs 12.6 µM [falling, partial curve]; to `CCOC(=O)Cn1c(=O)oc2cc(S(=O)(=O)Nc3cc(OC)cc(OC)c3)ccc21`, 25.1 µM [falling, partial curve]; to `O=c1[nH]c2ccc(S(=O)(=O)Nc3ccc(-c4nnc5n4CCCCC5)cc3)cc2o1`, 20 µM [falling, partial curve].
For `O=C(NCc1cccs1)c1ccc(N2CCCCC2)nc1`, the AC50 is 12.6 µM [falling, partial curve].
